This assay is described as follows: qHTS Assay for Lipid Storage Modulators in Drosophila S3 Cells.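 As to cell number change: cells counted by Cell Tracker Red CMTPX staining in the red channel.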 As to conditions: BODIPY lipid droplet fluorescence, 18-24 h; for cell number change: measured here: cell count max response, cells fed with added oleic acid. The procedure, abridged:
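Drosophila S3 cells got compounds at several concentrations plus oleic acid (400 uM solution). Laser-scanning cytometry with 488 nm excitation read lipid droplets at 500-530 nm and cells at 575-640 nm. Percent activity was relative to 20 uM Triacsin C.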

The mark [1] stands for this setting: measured here: cell number channel AC50, cells fed with added oleic acid.
Setting [2] is: measured here: lipid fluorescence (Fed channel) AC50, cells fed with added oleic acid.

Some of the results follow. The main result of the screen is listed elsewhere. These columns were measured beside it and carry no call. Most of these compounds were active or inconclusive in the main read-out, so they are no random draw. Potencies come from curve fits of mixed quality, noted in brackets.

As to `COc1ccc(NCc2nc3ccccc3n2CCOc2ccc(C)cc2)cc1`, the cell number change was -46.6%. Besides, the AC50 under setting [1] is 23.1 µM [falling, partial curve]. Under setting [2], the AC50 was 3.26 µM [rising, partial curve].

On to `COc1ccc(C(=O)/C=C/C(=O)N(Cc2ccc3c(c2)OCO3)C(C(=O)NC2CCCCC2)c2ccncc2)c(O)c1` (centres undefined), for which the cell number change was -3.37%. Further, the AC50 under setting [2] was 29.1 µM [falling, single point].

On to `NC(=O)COc1ccc(C(=O)/C=C2/C(=O)Nc3ccccc32)cc1`, for which the cell number change was -63.8%. For the same compound, the AC50 under setting [1] is 29.1 µM [falling, single point].

With `O=C(Nc1nnc(SCC(=O)N2CCCC2)s1)C1CC(=O)N(c2ccccc2)C1` (centres undefined), the cell number change worked out at 8.01%.

`CCN(c1ccccc1)S(=O)(=O)c1ccc(Cl)c(C(=O)OCC(=O)c2[nH]c(C)c(C(C)=O)c2C)c1`: under setting [2], the AC50 was 16.4 µM [rising, partial curve, poor fit].

Turning to `COc1ccc(C)cc1NS(=O)(=O)c1ccc(NS(=O)(=O)c2ccc(NC(C)=O)cc2)cc1`, the concentration at half-maximal activity (AC50) under setting [1] is 0.58 µM [rising, single point] and the AC50 under setting [2] is 0.58 µM [rising, single point].

Turning to `O=S(=O)(O)c1ccc(N2N=C(c3ccccc3)CC2c2ccccc2)cc1` (centres undefined), the cell number change came out at 55.8%. Also, the AC50 under setting [1] is 29.1 µM [rising, single point]. In addition, the AC50 under setting [2] was 3.66 µM [rising, full curve].

`COC(=O)c1c(NC(=O)CN2CCCC(C)C2)c2c(C)cccc2n1C` (centres undefined): the AC50 under setting [2] was 7.31 µM [falling, partial curve].

Turning to `CCCOc1ccc(C2C(C(=O)c3cc4ccccc4o3)=C(O)C(=O)N2c2cc(C)on2)cc1OC` (centres undefined), the AC50 under setting [2] is 29.1 µM [rising, single point].

Consider `O=C(C1COc2ccccc2O1)N1CCN(S(=O)(=O)c2cc(F)ccc2F)CC1` (centres undefined), for which the cell number change is -18.5%. For the same compound, the AC50 under setting [2] is 29.1 µM [rising, single point].

Regarding `COC(=O)[C@@]12CCCCN1[C@H](c1ccc(-c3ccc(C(C)=O)cc3)cc1)[C@H]1C(=O)N(C)C(=O)[C@H]12`, the cell number change came out at 13.1%.

On to `COc1ccc(C(=O)NC(CCSC)C(=O)N2CCCCCC2)cc1` (centres undefined), for which the cell number change was -4.76%. Further, the AC50 under setting [1] is 2.31 µM [rising, single point]. Also, under setting [2], the AC50 was 6.51 µM [falling, partial curve].

Take `O=C(Cc1cccc(C(F)(F)F)c1)Nc1cccc(S(=O)(=O)N2CCCC2)c1`: the cell number change turned out to be 42.2%. Besides, under setting [1], the AC50 was 20 µM [rising, partial curve]. Besides, the AC50 under setting [2] is 6.31 µM [rising, single point].

Turning to `CN(Cc1cccc(F)c1)C(=O)CSc1nnnn1C1CC1`, the AC50 under setting [2] is 2.06 µM [rising, partial curve].

For the compound `Nc1ccc(Oc2ccc3nc(-c4ccccc4)c(-c4ccccc4)nc3c2)cc1`, the cell number change is -17%. The concentration at half-maximal activity (AC50) under setting [2] is 1.84 µM [falling, single point].

With `CC(C)n1cc(NC(=O)c2cc(-c3ccccc3)on2)cn1`, the cell number change is 71.9%. The AC50 under setting [1] is 1.3 µM [rising, full curve]. Further, under setting [2], the AC50 was 1.84 µM [rising, partial curve].

For the compound `O=C(CCc1ccccc1)Nc1ccc2c(c1)OCCO2`, the cell number change is -5.91%.

In the case of `Cc1ccc(OCC(=O)OC(C)CN2CCCCC2)cc1` (centres undefined), the cell number change was 9.79%.

`COc1ccccc1NC(=O)C1=C(C)NC2=C(C(=O)CC(c3ccc(OC)c(OC)c3)C2)C1c1coc2ccccc2c1=O` (centres undefined): the cell number change was -4%. Further, under setting [2], the half-maximal activity concentration (AC50) was 32.6 µM [falling, single point].

On to `O=C(c1cc(C2CC2)on1)N1CCOCC1`, for which the cell number change was determined as 12.4%. Further, under setting [2], the AC50 was 6.51 µM [rising, single point].

Turning to `O=C(Nc1ccccc1N1CCOCC1)c1cccc([N+](=O)[O-])c1`, the cell number change is -83.3%. Besides, the AC50 under setting [1] was 7.31 µM [falling, partial curve, poor fit].

With `CCOc1ccccc1N(CC(=O)NCC1CCCO1)C(=O)CCC(=O)Nc1nccs1` (centres undefined), the cell number change is -16.7%. In addition, the AC50 under setting [2] was 29.1 µM [rising, single point].

With `CC(NC(=O)c1ccc(CS(C)(=O)=O)cc1)c1ccc(-n2ccnc2)cc1` (centres undefined), the AC50 under setting [2] is 29.1 µM [rising, single point].

As for `N#Cc1ccccc1CSc1nc(N2CCCCC2)nc(N2CCCCC2)n1`, the AC50 by setting is: under setting [1], 2.91 µM [rising, partial curve]; under setting [2], 4.61 µM [rising, partial curve].

Take `CC(=O)Nc1cccc(C(=O)NC2CCCc3c2cnn3-c2cc(C)cc(C)c2)c1` (centres undefined): the cell number change was -47.5%. In addition, the AC50 under setting [1] is 7.31 µM [falling, partial curve]. The AC50 under setting [2] was 0.731 µM [falling, full curve].

Take `CCc1nn(CC(=O)NCCCN2CCOCC2)c(=O)c2cc3cc(F)ccc3n12`: the cell number change was -7.95%. Also, the AC50 under setting [2] was 29.1 µM [rising, single point].

Turning to `N#C/C(=C\c1ccc(OCc2ccc(C(=O)O)cc2)cc1)C(=O)N1CCOCC1`, the cell number change came to 1.02%. In addition, the AC50 under setting [2] is 29.1 µM [falling, single point].

`O=C(CSc1nnc(CNC(=O)c2c(F)cccc2Cl)o1)Nc1ccc2c(c1)OCO2`: the cell number change was -4.75%. The AC50 under setting [1] is 0.103 µM [falling, full curve, poor fit]. Also, the AC50 under setting [2] was 0.116 µM [falling, full curve, poor fit].

Regarding `CCC(C)(C)C1CCC2(CC1)NC(=O)N(CC(=O)NCCc1ccc(OC)c(OC)c1)C2=O` (centres undefined), the cell number change was -49.8%. Under setting [1], the AC50 was 1.3 µM [falling, full curve]. For the same compound, the AC50 under setting [2] was 0.146 µM [falling, full curve].

Turning to `COc1cc(CNc2ccc3[nH]c(=O)[nH]c3c2)ccc1OCc1c(F)cccc1Cl`, the cell number change worked out at 9.86%.

For `COC(=O)c1ccc(C)c(NS(=O)(=O)c2ccc(C)c([N+](=O)[O-])c2)c1`, the cell number change is -11.6%.

For the compound `COc1ccc(CN(C)c2ncnc3sccc23)c(OC)c1OC`, the cell number change is -5.26%. The AC50 under setting [2] is 3.55 µM [falling, single point].

Turning to `CC(C)(C)/C=N/NC(=O)C1CC1`, the cell number change came to 13.5%. In addition, the AC50 under setting [2] is 18.4 µM [rising, single point].

Regarding `CCN(CC(=O)NCCN1CCOCC1)S(=O)(=O)c1ccc(F)cc1`, the cell number change was -10.5%.

Consider `CCN1CCN(C(=S)NCCOC)CC1`, for which the cell number change is -12.2%. In addition, the AC50 under setting [2] was 20.6 µM [falling, single point].

Turning to `CCCCn1nc(C(=O)N2CCc3ccccc32)c2ccccc2c1=O`, the cell number change was -27.3%. Under setting [2], the AC50 is 2.91 µM [rising, partial curve].

Consider `CN(C)c1nc2ccccc2c(N)c1-c1ccccc1`, for which the cell number change was -15.2%.

The values above are taken from PubChem BioAssay AID2685 (National Center for Advancing Translational Sciences (NCATS), 2010).
